Data reported in patent US20050153395A1, “Unique integrin binding site in connective tissue growth factor (CTGF)” (CHILDREN'S HOSPITAL INC., priority 2003, published 2005).

Columns and labels:
[1] = target: integrin αvβ3 (purified, human) (human); assay: cell-free binding assay (Example 4)
[2] = target: integrin αvβ3 (purified, human) (human); assay: solid phase competition ELISA; αvβ3 pre-incubated with peptide; competitor coated CTGF4
[3] = target: integrin αvβ3 (purified, human) (human); assay: solid phase ELISA
integrin α5β1 (purified) [4] = assay: PSC adhesion assays and solid phase ELISA
integrin α5β1 (purified) [5] = assay: cell-free binding assay (Example 11)
integrin α5β1 (purified) [6] = assay: solid phase competition ELISA
integrin α5β1 (purified) [7] = assay: solid phase competition ELISA, 35 µM peptide; competitor coated CTGF4 or fibronectin
[8] = target: integrin αvβ3 (purified, human) (human); assay: solid phase ELISA, coated ligand, purified αvβ3
integrin α5β1 (purified) [9] = assay: co-immunoprecipitation with rabbit anti-CTGF, blot with anti-integrin α5β1
integrin α5β1 (purified) [10] = assay: solid phase ELISA, coated ligand (2 µg/ml), purified α5β1
[11] = target: integrin αvβ3 (purified, human) (human); assay: co-immunoprecipitation with rabbit anti-CTGF, blot with anti-αvβ3
integrin α5β1 (purified) [12] = assay: co-immunoprecipitation and solid phase ELISA
integrin α5β1 (purified) [13] = assay: solid phase ELISA, coated CTGF4 (2 µg/ml), α5β1 1 µg/ml
integrin α5β1 (purified) [14] = assay: solid phase ELISA, coated mutant (8 µg/ml), α5β1 1 µg/ml

IRTPKISKPIKFELSG [CTGF[257-272] peptide …]
binding [1]: binds
binding [2]: binds
binding [3]: binds

GVCTDGR [CTGF[285-291] peptide GVCTDGR]
binding (integrin α5β1 (purified) [4]): binds
binding (integrin α5β1 (purified) [5]): binds
binding (integrin α5β1 (purified) [6]): binds
binding (integrin α5β1 (purified) [7]): binds

B1: CTGF3-4 (16-20 kDa CTGF, modules 3 and 4) (ligand)
chain: AYRLEDTFGPDPTMIRANCLVQTTEWSACSKTCGMGISTRVTNDNASCRLEKQSRLCMVRPCEADLEENIKKGKKCIRTPKISKPIKFELSGCTSMKTYRAKFCGVCTDGRCCTPHRTTTLPVEFKCPDGEVMKKNMMFIKTCACHYNCPGDNDIFESLYYRKMYGDMA
binding [8]: binds
binding (integrin α5β1 (purified) [9]): binds
binding (integrin α5β1 (purified) [10]): binds
binding [11]: binds

B2: CTGF4 (10 kDa CTGF, module 4 alone, residues 247-349 of SEQ ID NO: 1) (ligand)
chain: EENIKKGKKCIRTPKISKPIKFELSGCTSMKTYRAKFCGVCTDGRCCTPHRTTTLPVEFKCPDGEVMKKNMMFIKTCACHYNCPGDNDIFESLYYRKMYGDMA
binding [8]: binds
binding (integrin α5β1 (purified) [9]): binds
binding (integrin α5β1 (purified) [12]): binds
binding (integrin α5β1 (purified) [13]): binds
binding (integrin α5β1 (purified) [10]): binds
binding [11]: binds

B3: CTGF4 mutant M2 (K261A, I262A, S263A, K264A) (ligand)
chain: B2 chain with K15A, I16A, S17A, K18A
binding (integrin α5β1 (purified) [14]): binds

B4: CTGF4 mutant M1 (I257A, R258A, T259A, P260A) (ligand)
chain: B2 chain with I11A, R12A, T13A, P14A
binding (integrin α5β1 (purified) [14]): binds

B5: CTGF4 mutant M3 (P265A, I266A, K267A, F268A) (ligand)
chain: B2 chain with P19A, I20A, K21A, F22A
binding (integrin α5β1 (purified) [14]): binds

B6: CTGF4 mutant M4 (E269A, L270A, S271A, G272A) (ligand)
chain: B2 chain with E23A, L24A, S25A, G26A
binding (integrin α5β1 (purified) [14]): binds

Positions count from the first letter of the chain named. Numbers in names are those of the source. Results are given in words; binding and its absence hold for the method and conditions named. A result given as binding can be weak or reduced; the word gives no strength. For part of these data: In cells and extracts the contact can be indirect.
